Where “and” joins values, the source holds several entries; their conditions need not be identical. Equal values may be shown once. About 3,700 (0.93%) of roughly 400,000 compounds were called active. This list was built around the results that the source calls inconclusive (neither active nor inactive); the mix of calls is not that of the screen. The call rests on the fitted dose curve; in most records, active means well fitted inhibition curve with a large enough effect; inconclusive means small, poorly fitted or top-dose-only effect, or another doubt; inactive means no such curve, though single readings can be large or run the other way. A potency beside an inconclusive call is a rough fit, not a confirmed value.
Molecular target: Vitamin D3 receptor (Homo sapiens) (UniProt P11473)
Assay: Inhibitors of the vitamin D receptor (VDR): qHTS
Conditions: VDR-SRC2-3 peptide fluorescence polarization, 2 h; max response, negative = inhibition: active compounds read low
Procedure, shortened: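 VDR–SRC2-3 interaction, FP format. Cmpds 23 nl via pintool, brief spin, 2 h ambient incubation.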
On the % scale 0 is the no-effect control and ±100 the full control effect; potency means the concentration at half of the fitted maximal effect.

Chains of the proteins cited; added tags and fusions are not shown. Lines headed by an entry give the natural chain unless they say otherwise; changes in a name come on top.
UniProt P11473: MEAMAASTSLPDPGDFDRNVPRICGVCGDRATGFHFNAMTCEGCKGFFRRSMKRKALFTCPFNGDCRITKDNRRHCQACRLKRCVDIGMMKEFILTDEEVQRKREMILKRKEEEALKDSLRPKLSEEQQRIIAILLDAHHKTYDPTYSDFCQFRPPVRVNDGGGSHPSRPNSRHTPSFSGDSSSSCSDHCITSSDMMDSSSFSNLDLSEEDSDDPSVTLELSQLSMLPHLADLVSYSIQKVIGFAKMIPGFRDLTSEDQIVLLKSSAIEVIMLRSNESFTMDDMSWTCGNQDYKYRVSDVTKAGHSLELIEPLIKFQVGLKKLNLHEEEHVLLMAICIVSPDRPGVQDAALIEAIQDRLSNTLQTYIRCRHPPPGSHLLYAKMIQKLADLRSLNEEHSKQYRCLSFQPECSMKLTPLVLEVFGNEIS

| Compound | Potency | max response, negative = inhibition |
| --- | --- | --- |
| Cc1ccc(S(=O)(=O)NNc2nc3ccccc3nc2C(F)(F)F)cc1 | inconclusive: 20 µM [inhibitor, full curve, poor fit] |  |
| COc1ccc(-c2ccccc2C2C3C=CCCC3(C)C(=O)N2Cc2ccccc2)cc1 (centres undefined) | active: 79.4 µM |  |
| CCCCn1cc(S(=O)(=O)c2ccc(C)c(C)c2)c(=O)c2cc(F)c(N(CC)CC)cc21 |  | inactive: -2.86% |
| CCCCCCC(=O)N1C/C=C\C(c2ccc(OC)cc2)N(Cc2ccc(F)cc2)C(=O)C1Cc1ccccc1 (centres undefined) |  | inactive: -19.3% |
| CCCn1c(=S)[nH]c2cc(Cl)ccc21 | inconclusive: 28.2 µM [inhibitor, partial curve, poor fit] |  |
| O=C(Nc1sc2c(c1C(=O)Nc1cccc(Cl)c1)CCCC2)c1cccs1 | active: 25.1 µM |  |
| COc1ccc(/C=C/C(=O)c2ccccc2O)cc1 | inconclusive: 56.2 µM [inhibitor, partial curve, poor fit] |  |
| CC(=O)OC[C@@]1(O)C[C@@]23CC[C@@H]4c5ccoc5CC[C@@]4(C)[C@@H]2CCC1C3 | inconclusive: 50.1 µM [inhibitor, partial curve, poor fit] |  |
| Cc1ccc2c(c1)-c1onc(C(=O)N3CCN(c4cc(Cl)ccc4C)CC3)c1CO2 |  | inactive: 3.64% |
| C[N+]12CCCCC1[C@@H](CO)CCC2 (some centres undefined) |  | inactive: 0.469% |
| CC(C)(C)c1nnc(NC(=O)Cc2ccc(Br)cc2)s1 | inconclusive: 11.2 µM [inhibitor, partial curve, poor fit] |  |
| CC(/C=C1\SC(=S)N(NS(=O)(=O)c2ccc(C)cc2)C1=O)=C\c1ccccc1 | inconclusive: 56.2 µM [inhibitor, partial curve, poor fit] |  |
| CC(=O)Nc1cccc(/C(C)=N\NC(=O)c2ccc(Cn3nc([N+](=O)[O-])c(Cl)c3C)o2)c1 | inconclusive: 89.1 µM [inhibitor, single point] |  |
| COC(=O)C1CCN(CC(=O)Nc2ccc3c(c2)OCCO3)CC1 |  | inactive: 3.83% |
| CN(C)S(=O)(=O)c1cccc(NC(=O)c2ccccc2OCc2ccc(F)cc2)c1 |  | inactive: 11.1% |
| N#Cc1ccc(C(=O)OCC(=O)Nc2cccc(S(=O)(=O)NC3=NCCC3)c2)cc1 | inconclusive: 17.8 µM [inhibitor, partial curve] |  |
| Cc1cc(NC(=O)CSc2ccc3nnc(-c4ccc(Cl)cc4)n3n2)no1 |  | inactive: 3.51% |
| CCN(Cc1ccccc1)C(=O)c1cc2c(=O)[nH]c3ccc(C)cc3c2s1 |  | inactive: -1.73% |
| COc1ccc(CC(=O)NNC(=O)CCC(=O)Nc2cc(C)ccc2C)cc1 | active: 89.1 µM |  |
| CCC(C)[C@@H](CN(N=O)[C@@H](Cc1ccccc1)CN(C)N=O)N(CCc1ccccc1)N=O (some centres undefined) | inconclusive: 89.1 µM [inhibitor, partial curve, poor fit] |  |
| CC(C)(C)NC(=O)c1ccccc1NC(=O)C1CC(=O)N(C2CCCCC2)C1 (centres undefined) | inconclusive: 89.1 µM [inhibitor, single point] |  |
| CCOC(=O)C1=C(C)NC(C)=C(C(=O)OC)C1c1cccc([N+](=O)[O-])c1 (centres undefined) | inconclusive: 56.2 µM [inhibitor, partial curve] and inconclusive: 50.1 µM [inhibitor, partial curve] |  |

| Compound | Potency | max response, negative = inhibition |
| --- | --- | --- |
| Cc1cccc(NNC(=S)Nc2c(C)cccc2C)c1 | inconclusive: 89.1 µM [inhibitor, single point] |  |
| COc1ccccc1N1CCN(C(CNC(=O)C(=O)NCc2ccc(F)cc2)c2cccnc2)CC1 (centres undefined) |  | inactive: 11.6% |
| CCN(CC(=O)Nc1ccc(OC)cc1)C(=O)CSCc1ccc(C)cc1 | inconclusive: 3.55 µM [inhibitor, full curve, poor fit] |  |
| CCOC(=O)N1CCN(S(=O)(=O)c2cn(C)c(=O)n(C)c2=O)CC1 |  | inactive: -15.9% |
| Cc1cc(=O)oc2cc(OCC(=O)NC3CCCCC3)ccc12 |  | inactive: -7.71% |
| CCc1ccc(C(=O)N2CCC(c3nc(-c4ccc(S(=O)(=O)N5CCCC5)cc4)no3)CC2)cc1 |  | inactive: 12.5% |
| COc1ccc(CCN2C(=O)CC(Cc3ccc(C)cc3)C2=O)cc1OC (centres undefined) | inconclusive: 39.8 µM [inhibitor, single point] |  |
| C/C=C\C=C/C(=O)Nc1cccc(C2=NOC3(C2)C[C@@H](C(N)=O)N(C(=O)COc2ccc(Cl)cc2)C3)c1 (some centres undefined) | inconclusive: 89.1 µM [inhibitor, single point] |  |
| Cc1cc2cc(CNC(=O)c3ccc(Br)o3)ccc2n1C | active: 79.4 µM |  |
| c1ccc(SSc2ccccn2)nc1 | active: 3.16 µM |  |
| COc1ccc(CS(=O)(=O)/C(Cl)=C(/Cl)C(=O)Nc2ccc(OC)nc2)cc1 | active: 39.8 µM |  |
| CCNC(=S)NNC(=O)c1ccccc1Cl |  | inactive: -8.33% |
| O=C(O)c1cc(-c2cccnc2)nn1-c1ccccn1 |  | inactive: -19.4% |
| COc1c(OC)c(O)c2c(=O)cc(-c3c(O)cccc3O)oc2c1OC |  | inactive: 0.177% |
| CN(CC(=O)Nc1cccc(F)c1)CC(=O)N(C)CC(=O)Nc1ccccc1Br | inconclusive: 89.1 µM [inhibitor, single point] |  |
| COC(=O)c1ccc(-n2c(CCC(=O)O)ccc2-c2ccccc2)cc1 |  | inactive: 16.9% |
| CCc1cc2c(cc(C(=O)OC)n2Cc2nc(-c3ccc(C)cc3)oc2C)s1 | inconclusive: 89.1 µM [inhibitor, single point] |  |
| Oc1ccccc1C(=S)N1CCCC1 | inconclusive: 89.1 µM [inhibitor, partial curve, poor fit] |  |
| O=C1C[C@@H](c2ccc3ccccc3c2)N1S(=O)(=O)c1ccccc1[N+](=O)[O-] | inconclusive: 56.2 µM [inhibitor, partial curve, poor fit] |  |
| COc1ccc(/C=C2\N=C(C)OC2=O)cc1[N+](=O)[O-] | active: 79.4 µM |  |
| COCCn1c(=NC(=O)CCS(=O)(=O)c2ccccc2)sc2cc(C)ccc21 | inconclusive: 79.4 µM [inhibitor, single point] |  |
| CCCC(=O)C1C(=O)CC(C)(C)C(c2cc(C)no2)C1=O (centres undefined) |  | inactive: 3.42% |

One compound at a time (already shown):
CCCC(=O)C1C(=O)CC(C)(C)C(c2cc(C)no2)C1=O (centres undefined) as listed: max response, negative = inhibition: inactive: 3.42%
CCOC(=O)C1=C(C)NC(C)=C(C(=O)OC)C1c1cccc([N+](=O)[O-])c1 (centres undefined) as listed: Potency: inconclusive: 56.2 µM [inhibitor, partial curve] and inconclusive: 50.1 µM [inhibitor, partial curve]
